Data as given in PMC7678849.
Results are given in words; binding and its absence hold for the method and conditions named. In cells and extracts the contact can be indirect. A result given as binding can be weak or reduced; the word gives no strength.

Target: 3x Flag-tagged O-GlcNAc site mutant NRF1 (Flag-AA-NRF1) (human)
Assay: co-IP; lysates of ADR cells stably expressing Flag-WT-NRF1 or Flag-AA-NRF1, anti-Flag magnetic beads, immunoblotting for endogenous HCF-1 and OGT

binding: binds
B1: O-GlcNAc transferase (OGT), endogenous (enzyme, UniProt O15294 1-1046)
chain: MASSVGNVADSTEPTKRMLSFQGLAELAHREYQAGDFEAAERHCMQLWRQEPDNTGVLLLLSSIHFQCRRLDRSAHFSTLAIKQNPLLAEAYSNLGNVYKERGQLQEAIEHYRHALRLKPDFIDGYINLAAALVAAGDMEGAVQAYVSALQYNPDLYCVRSDLGNLLKALGRLEEAKACYLKAIETQPNFAVAWSNLGCVFNAQGEIWLAIHHFEKAVTLDPNFLDAYINLGNVLKEARIFDRAVAAYLRALSLSPNHAVVHGNLACVYYEQGLIDLAIDTYRRAIELQPHFPDAYCNLANALKEKGSVAEAEDCYNTALRLCPTHADSLNNLANIKREQGNIEEAVRLYRKALEVFPEFAAAHSNLASVLQQQGKLQEALMHYKEAIRISPTFADAYSNMGNTLKEMQDVQGALQCYTRAIQINPAFADAHSNLASIHKDSGNIPEAIASYRTALKLKPDFPDAYCNLAHCLQIVCDWTDYDERMKKLVSIVADQLEKNRLPSVHPHHSMLYPLSHGFRKAIAERHGNLCLDKINVLHKPPYEHPKDLKLSDGRLRVGYVSSDFGNHPTSHLMQSIPGMHNPDKFEVFCYALSPDDGTNFRVKVMAEANHFIDLSQIPCNGKAADRIHQDGIHILVNMNGYTKGARNELFALRPAPIQAMWLGYPGTSGALFMDYIITDQETSPAEVAEQYSEKLAYMPHTFFIGDHANMFPHLKKKAVIDFKSNGHIYDNRIVLNGIDLKAFLDSLPDVKIVKMKCPDGGDNADSSNTALNMPVIPMNTIAEAVIEMINRGQIQITINGFSISNGLATTQINNKAATGEEVPRTIIVTTRSQYGLPEDAIVYCNFNQLYKIDPSTLQMWANILKRVPNSVLWLLRFPAVGEPNIQQYAQNMGLPQNRIIFSPVAPKEEHVRRGQLADVCLDTPLCNGHTTGMDVLWAGTPMVTMPGETLASRVAASQLTCLGCLELIAKNRQEYEDIAVKLGTDLEYLKKVRGKVWKQRISSPLFNTKQYTMELERLYLQMWEHYAAGNKPDHMIKPVEVTESA
